Results as given in paper PMC10582465.
No constants are given. Whether binding was seen depends on the method and setting. Binding seen in cells or lysates may run through a third protein. Some results given as binding are weak or reduced against the parent protein; the word gives no strength. For part of these data: Sequences can lack the tags named with a protein.

Sequences of proteins named here, by UniProt entry; tags and fusion partners are left off.
UniProt P19474: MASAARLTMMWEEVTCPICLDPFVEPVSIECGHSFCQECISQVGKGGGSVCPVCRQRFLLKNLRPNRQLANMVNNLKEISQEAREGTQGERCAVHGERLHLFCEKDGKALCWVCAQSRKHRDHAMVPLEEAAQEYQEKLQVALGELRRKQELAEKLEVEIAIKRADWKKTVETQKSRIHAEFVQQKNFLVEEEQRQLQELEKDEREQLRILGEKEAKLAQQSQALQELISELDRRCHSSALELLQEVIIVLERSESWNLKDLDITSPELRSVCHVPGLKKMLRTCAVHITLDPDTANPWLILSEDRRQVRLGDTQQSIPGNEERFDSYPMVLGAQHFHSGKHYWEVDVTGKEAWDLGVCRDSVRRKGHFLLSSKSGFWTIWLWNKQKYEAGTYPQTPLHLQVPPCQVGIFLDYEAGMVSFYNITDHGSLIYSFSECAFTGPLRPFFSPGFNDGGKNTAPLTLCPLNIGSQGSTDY

Experiments:
[1] = target: Flag-TRIM21 (in HEK293T) (human) (UniProt P19474); test: co-IP; HEK293T cells transfected with HA- and Flag-tagged plasmids; anti-Flag or anti-HA antibodies with Protein A/G magnetic beads, 4 °C overnight; IP lysis buffer 20 mM Tris-HCl pH 7.4, 1 mM EDTA, 150 mM NaCl, 1% NP-40; immunoblot
[2] = target: TRIM21, endogenous in MHCC-97H (human (endogenous in MHCC-97H)) (UniProt P19474); test: co-IP; endogenous proteins; MHCC-97H cell lysates immunoprecipitated with anti-TRIM21 antibodies, immunoblotted with anti-FSP1 antibodies
GST-TRIM21 (human) = GST-TRIM21 (human) (UniProt P19474); test: pull-down; GST, GST-FSP1 or GST-TRIM21 from bacteria on GST magnetic beads, incubated with cell lysate at 4 °C overnight; 50 mM Tris-HCl pH 7.4, 0.5% NP-40, 1 mM EDTA, 150 mM NaCl; immunoblot; only the target purified

B1: HA-FSP1 (in HEK293T) (protein, UniProt Q9BRQ8 1-373)
chain: MGSQVSVESGALHVVIVGGGFGGIAAASQLQALNVPFMLVDMKDSFHHNVAALRASVETGFAKKTFISYSVTFKDNFRQGLVVGIDLKNQMVLLQGGEALPFSHLILATGSTGPFPGKFNEVSSQQAAIQAYEDMVRQVQRSRFIVVVGGGSAGVEMAAEIKTEYPEKEVTLIHSQVALADKELLPSVRQEVKEILLRKGVQLLLSERVSNLEELPLNEYREYIKVQTDKGTEVATNLVILCTGIKINSSAYRKAFESRLASSGALRVNEHLQVEGHSNVYAIGDCADVRTPKMAYLAGLHANIAVANIVNSVKQRPLQAYKPGALTFLLSMGRNDGVGQISGFYVGRLMVRLTKSRDLFVSTSWKTMRQSPP
In the case of B1, the binding [1] is reported as “binds”.

B2: FSP1, endogenous in MHCC-97H (protein, UniProt Q9BRQ8 1-373)
chain: MGSQVSVESGALHVVIVGGGFGGIAAASQLQALNVPFMLVDMKDSFHHNVAALRASVETGFAKKTFISYSVTFKDNFRQGLVVGIDLKNQMVLLQGGEALPFSHLILATGSTGPFPGKFNEVSSQQAAIQAYEDMVRQVQRSRFIVVVGGGSAGVEMAAEIKTEYPEKEVTLIHSQVALADKELLPSVRQEVKEILLRKGVQLLLSERVSNLEELPLNEYREYIKVQTDKGTEVATNLVILCTGIKINSSAYRKAFESRLASSGALRVNEHLQVEGHSNVYAIGDCADVRTPKMAYLAGLHANIAVANIVNSVKQRPLQAYKPGALTFLLSMGRNDGVGQISGFYVGRLMVRLTKSRDLFVSTSWKTMRQSPP
In the case of B2, the binding [2] is reported as “binds”.

B3: FSP1 of the cell lysate used in the GST pull-down (protein, UniProt Q9BRQ8 1-373)
chain: MGSQVSVESGALHVVIVGGGFGGIAAASQLQALNVPFMLVDMKDSFHHNVAALRASVETGFAKKTFISYSVTFKDNFRQGLVVGIDLKNQMVLLQGGEALPFSHLILATGSTGPFPGKFNEVSSQQAAIQAYEDMVRQVQRSRFIVVVGGGSAGVEMAAEIKTEYPEKEVTLIHSQVALADKELLPSVRQEVKEILLRKGVQLLLSERVSNLEELPLNEYREYIKVQTDKGTEVATNLVILCTGIKINSSAYRKAFESRLASSGALRVNEHLQVEGHSNVYAIGDCADVRTPKMAYLAGLHANIAVANIVNSVKQRPLQAYKPGALTFLLSMGRNDGVGQISGFYVGRLMVRLTKSRDLFVSTSWKTMRQSPP
In the case of B3, the binding (GST-TRIM21 (human)) is reported as “binds”.
